Measurements published in paper PMC7554872.
These are yes or no findings as the source states them, for the method shown. Binding seen in cells or lysates may run through a third protein. Binding can be weak; no strength is given.

Chains of the proteins cited; added tags and fusions are not shown.
UniProt Q9EPW1: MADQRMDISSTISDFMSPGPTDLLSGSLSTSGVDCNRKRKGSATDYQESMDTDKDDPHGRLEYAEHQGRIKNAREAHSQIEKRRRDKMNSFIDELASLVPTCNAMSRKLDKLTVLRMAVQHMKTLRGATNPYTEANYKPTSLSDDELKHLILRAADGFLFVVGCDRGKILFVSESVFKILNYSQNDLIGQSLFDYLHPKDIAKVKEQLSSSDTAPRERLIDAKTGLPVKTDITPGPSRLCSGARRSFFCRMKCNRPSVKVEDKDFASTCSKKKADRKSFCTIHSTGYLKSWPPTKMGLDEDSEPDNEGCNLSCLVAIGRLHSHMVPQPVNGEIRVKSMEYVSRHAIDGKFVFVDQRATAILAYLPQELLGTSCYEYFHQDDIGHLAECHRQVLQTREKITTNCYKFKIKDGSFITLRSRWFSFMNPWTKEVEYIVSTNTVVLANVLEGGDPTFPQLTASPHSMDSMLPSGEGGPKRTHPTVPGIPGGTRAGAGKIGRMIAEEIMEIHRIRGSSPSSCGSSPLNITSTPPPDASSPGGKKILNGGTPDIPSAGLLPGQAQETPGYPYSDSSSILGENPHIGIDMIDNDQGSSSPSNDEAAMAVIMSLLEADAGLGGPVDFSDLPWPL

Target: Brain and muscle Arnt-like (BMAL)1 protein (rat (endogenous in primary adipocytes of Wistar rats)) (UniProt Q9EPW1)
Experiment: co-IP; lysate (1 mg/mL protein) of primary adipocytes from epididymal adipose tissue of E-SED, L-SED, E-EX and L-EX rats incubated with antibodies against BMAL1; immunocomplexes recovered on Dynabeads Protein G; blots with antibodies against each partner

binding: binds
Substance: hormone-sensitive lipase (from UniProt P15304-2) (enzyme)
